{
  "source": "PubChem BioAssay AID540276",
  "about": "(National Center for Advancing Translational Sciences (NCATS), 2011)",
  "note": "In all, about 300,000 compounds went through this assay and about 5,400 (1.8%) were called active. Inconclusive means that the source gave no clear call. Such entries were picked first, then a sample of the others. Calls follow the shape of the full dose curve; tested in HEK293 cells. Potencies beside an inconclusive call are fits to weak or partial responses and may not hold up. % is scaled to controls: 0 for no effect and ±100 for the full control effect; potency is read from the fitted curve at half-maximal effect.",
  "data": [
    {"assay": "qHTS for inhibitors of binding or entry into cells for Marburg Virus", "details": "Marburg virus pseudotyped entry inhibition, cell reporter; activity change, negative = inhibition: at 37.8 µM (top of the series) unless noted", "values": [
      {"molecule": "CCCCN(C(=O)c1ccco1)c1nnc(-c2cc(OC)c(OC)c(OC)c2)s1", "Potency": "inconclusive: 23.1 µM [inhibitor, partial curve]"},
      {"molecule": "CCOC(=O)C(C)/C(C)=N/NC(N)=S", "note": "(stereo not given)", "activity change, negative = inhibition": "inactive: 2.09%"},
      {"molecule": "COc1ccc(CNC(=O)CSc2ncn[nH]2)cc1OC", "Potency": "inconclusive: 7.08 µM [activator, partial curve]"},
      {"molecule": "COc1cc(OC)cc(C(=O)Nc2ccccc2C(=O)NCc2cccnc2)c1", "Potency": "inconclusive: 35.5 µM [inhibitor, single point]"},
      {"molecule": "Cc1cc(Br)ccc1NC(=O)c1cn(C2CCCC2)c(=O)c2c1c1ccccc1n2C", "Potency": "inconclusive: 35.5 µM [activator, partial curve, poor fit]"},
      {"molecule": "Cc1ccc(S(=O)(=O)n2nccc2-c2c(-c3ccc(Cl)cc3)noc2C)cc1", "Potency": "inconclusive: 15.8 µM [inhibitor, partial curve, poor fit]"},
      {"molecule": "CC(C)(C)NC(=O)c1cc(NC(=O)c2cccs2)cc(NC(=O)c2cccs2)c1", "Potency": "inconclusive: 22.4 µM [inhibitor, partial curve, poor fit]"},
      {"molecule": "CCOc1cc(/C=C/c2nc3cc(C)c(C)cc3s2)ccc1OCC(=O)N1CCOCC1", "activity change, negative = inhibition": "inactive: -18.6%"},
      {"molecule": "O=C(Nc1ccc2c(c1)ncn2-c1ccccc1)c1ccco1", "activity change, negative = inhibition": "inactive: -5.17%"},
      {"molecule": "COc1ccc(NC(=S)Nc2ccc3nccnc3c2)cc1", "Potency": "inconclusive: 10 µM [activator, partial curve, poor fit]"},
      {"molecule": "NC1=NC(=Nc2ccc(S(=O)(=O)N3CCOCC3)cc2)c2ccccc21", "Potency": "inconclusive: 14.1 µM [inhibitor, single point]"},
      {"molecule": "Cc1ccc(-c2cc(C(=O)NCc3cnn(C)c3)c3cc(Br)ccc3n2)cc1", "Potency": "inactive"},
      {"molecule": "O=C(c1cc2ccccc2cc1O)N1CCN(c2ccc([N+](=O)[O-])cc2)CC1", "activity change, negative = inhibition": "inactive: -10.5%"},
      {"molecule": "O=C1CC(c2ccccc2)CC(O)=C1C=NCc1ccccc1Cl", "note": "(stereo not given)", "Potency": "inconclusive: 0.92 µM [inhibitor, full curve]"},
      {"molecule": "CC1=CC2(C)C(C3C(C)=CC2(C)C(=O)C3(C)O)C(C)(O)C1=O", "note": "(stereo not given)", "Potency": "inconclusive: 35.5 µM [activator, single point]"},
      {"molecule": "Cc1ccc(S(=O)(=O)Nc2nc(-c3ccccc3)cs2)cc1", "activity change, negative = inhibition": "inactive: -12.9%"},
      {"molecule": "CCOC(=O)c1c(C)oc2cc(Br)c(OC(C)C(=O)OCC)cc12", "note": "(stereo not given)", "Potency": "inconclusive: 13 µM [inhibitor, single point]"},
      {"molecule": "Cc1ccc(S(=O)(=O)N/N=C/c2cc(Br)c(C)o2)cc1", "activity change, negative = inhibition": "inactive: 0%"},
      {"molecule": "CC(C)CCC1(CCNC(=O)c2cccs2)CCOC(C)(C)C1", "note": "(stereo not given)", "Potency": "inconclusive: 35.5 µM [inhibitor, single point]"},
      {"molecule": "Cc1ccc(NC(=O)CSc2ccccc2NC(=O)c2cccc(Cl)c2)cc1Cl", "Potency": "inconclusive: 0.891 µM [inhibitor, partial curve, poor fit]"},
      {"molecule": "CCCn1c(NCc2ccc3c(c2)OCO3)nc2ccccc21", "activity change, negative = inhibition": "inactive: 8.85%"},
      {"molecule": "N#CCc1c(C#N)c(N)nc(N2CCN(c3ccc(F)cc3)CC2)c1C#N", "Potency": "inconclusive: 29.1 µM [inhibitor, single point]"},
      {"molecule": "COc1ccc(C(=O)Nc2nc3c(s2)CCc2cc(OC)ccc2-3)cc1", "Potency": "inconclusive: 11.2 µM [inhibitor, single point]"},
      {"molecule": "COCCN1CCN(C(=O)C2CCC(=O)N(CCc3ccccc3)C2)CC1", "note": "(stereo not given)", "Potency": "inconclusive: 14.1 µM [activator, single point]"},
      {"molecule": "Cc1ccccc1C(=O)Nc1ccccc1Sc1ccccc1", "Potency": "inconclusive: 10 µM [inhibitor, partial curve, poor fit]"},
      {"molecule": "COc1ccc(/C=C2\\SC(=O)N(CCNC(=O)Cn3[nH]c(=O)c4ccccc4c3=O)C2=O)cc1", "activity change, negative = inhibition": "inactive: 15.4% [at 46.1 µM]"},
      {"molecule": "COc1ccc(C(=O)NCc2c(C)oc(C)c2C(=O)O)cc1", "activity change, negative = inhibition": "inactive: 12.2%"},
      {"molecule": "Cc1ccc(NC2=C(C(=O)c3ccccc3)N(C)S(=O)(=O)c3ccccc32)cc1", "Potency": "inconclusive: 10 µM [inhibitor, partial curve, poor fit]"},
      {"molecule": "C/C(Cl)=C\\Cn1c(Nc2cccc(C)c2)nc2c1c(=O)n(C)c(=O)n2C", "Potency": "active: 11.6 µM"},
      {"molecule": "CCOC(=O)N1CCN(S(=O)(=O)c2ccc(OCC)c3ccccc23)CC1", "Potency": "inconclusive: 35.5 µM [inhibitor, single point]"},
      {"molecule": "COC(=O)/C=C/c1ccc(-n2ccnc2)cc1", "activity change, negative = inhibition": "inactive: -4.57% [at 46.1 µM]"},
      {"molecule": "COc1ccc(-c2cc(=O)n(-c3nc4ccccc4[nH]3)[nH]2)cc1", "Potency": "inconclusive: 16.4 µM [inhibitor, single point]"},
      {"molecule": "Cc1ccc(C(=O)NCCC2=CCCCC2)cc1S(=O)(=O)N1CCCCC1", "Potency": "inconclusive: 35.5 µM [inhibitor, single point]"},
      {"molecule": "CC(=O)Nc1ccc(CCCCc2ccccc2)cc1", "Potency": "inconclusive: 0.501 µM [inhibitor, full curve, poor fit]"},
      {"molecule": "Cc1n[nH]c(C)c1S(=O)(=O)N1CCCC(C(=O)Nc2ccc(Cl)cc2)C1", "note": "(stereo not given)", "activity change, negative = inhibition": "inactive: -26.7% [at 46.1 µM]"}
    ]}
  ]
}
